{
  "source": "the supplement of paper PMC8256030",
  "note": "Some of the results follow. Repeats in this data set agree poorly, so a single value says little.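 HEK293T cells were given each compound shortly before transfection with a reporter in which red mCherry is followed by the SARS-CoV-2 frameshift element and then GFP in the −1 frame, so GFP appears only after frameshifting.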",
  "data": [
    {"system": "HEK293T", "test": "percent viability (nuclei count) relative to control; higher = more viable cells", "conditions": "10 µM; 24 h", "units": {"percent viability": "%"}, "values": [
      {"smiles": "O=C1Cc2cc(CCN3CCN(c4nsc5ccccc45)CC3)c(Cl)cc2N1", "percent viability": 201},
      {"smiles": "O=C(O)c1cc2cc(Cc3cccnc3)ccc2o1", "note": "[furegrelate]", "percent viability": 99.7},
      {"smiles": "O=C(O)c1cccnc1", "note": "[nicotinic acid]", "percent viability": 87.6},
      {"smiles": "Cc1cc2c(cc1S(N)(=O)=O)S(=O)(=O)CCC2", "note": "[meticrane]", "percent viability": 100},
      {"smiles": "O=C(O)c1cc(O)c2c3nc4ccccc4oc-3cc(=O)c2n1", "note": "[pirenoxine]", "percent viability": 243},
      {"smiles": "Oc1c(Br)cc(Br)c2cccnc12", "note": "[broxyquinoline]", "percent viability": 256},
      {"smiles": "CCN(CC)C(=O)c1cccc(C)c1", "percent viability": 147}
    ]}
  ]
}
